From PubChem BioAssay AID504834 (National Center for Advancing Translational Sciences (NCATS), 2011)
Several values for one entry are separate records, joined by “and”; a condition that tells them apart may be missing. Identical values can stand only once. Hit rate of the full screen: of about 320,000 compounds, about 22,000 (6.9%) were called active. The inconclusive results got no clear call from the source; some entries with a clear call stand among them for comparison. Calls come from the whole dose curve; as a rule, active = well fitted inhibition curve with a large enough effect; inconclusive = small, poorly fitted or top-dose-only effect, or another doubt; inactive = no such curve, though single readings can be large or run the other way. Where the call is inconclusive, the potency comes from a doubtful curve fit.

Assay: Primary qHTS for delayed death inhibitors of the malarial parasite plastid, 96 hour incubation
Conditions: P. falciparum luciferase reporter growth; series mostly up to 28.7 µM
How it was run: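 Readout is luminescence from an integrated firefly luciferase in P. falciparum. Red cells, 2% hematocrit and 0.05% parasitemia final, were cultured with compound through two parasite generations (96 hours) at 37 C, 5% CO2.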
Potency is the fitted concentration of half-maximal effect.

| Structure (SMILES) | Potency |
| --- | --- |
| CCCCn1ccnc1C(=O)c1cccc(S(=O)(=O)N2CC(C)CC(C)C2)c1 (centres undefined) | inconclusive: 13.1 µM [inhibitor, single point] |
| CCc1cccc(NC(=S)N(CCN(C)C)C2CCN(C(C)C)CC2)c1 | inactive |
| Cc1ccc(NC(=O)Nc2ccc3c(c2)OCO3)c(Br)c1 | inconclusive: 11.7 µM [inhibitor, single point] |
| COc1cc(CCC(=O)N2CCN(S(=O)(=O)c3ccc(C)cc3)CC2)cc(OC)c1OC | inconclusive: 4.65 µM [inhibitor, full curve, poor fit] |
| Cc1oc(-c2cc(F)ccc2F)nc1CN1CCCN(C(=O)c2ccco2)CC1 | inconclusive: 18.5 µM [inhibitor, single point] |
| Cc1nn(Cc2ccccc2)c(Cl)c1C(=O)OCC#N | inactive |
| CC1(C)CC(NC(=O)COc2cc3oc(=O)c4c(c3cc2Cl)CCC4)CC(C)(C)N1 | inconclusive: 18.5 µM [inhibitor, single point] |
| COc1ccc(-c2nc3c4ccccc4ccn3c2CN2CCCCC2)cc1OC | inconclusive: 10.4 µM [inhibitor, single point] |
| COc1ccc(NC(=O)c2cc(-c3ccccc3)nc3c2cnn3C(C)C)cc1 | inconclusive: 18.5 µM [inhibitor, single point] |
| CC/C(=N\NC(=S)Nc1ccc(OC)cc1)c1ccc(OC(F)F)cc1 | inconclusive: 18.5 µM [inhibitor, single point] |
| CCN(CC)S(=O)(=O)c1ccc(N2CCOCC2)c(NC(=O)c2c3c(nc4ccccc24)CCC3)c1 | active: 4.65 µM |
| C=CCn1c(SCC(=O)NCC)nnc1-c1cc2c(s1)CCC(CC)C2 (centres undefined) | inactive |
| CC(C)Oc1cccc(C(=O)C2CCCN(C(=O)CCc3cnn(C)c3)C2)c1 (centres undefined) | inconclusive: 18.5 µM [inhibitor, single point] |
| COc1ccc(S(=O)(=O)N2CCCC(C(=O)NCc3ccco3)C2)cc1OC (centres undefined) | inactive |
| COc1ccc2cc(C3(C)NC(=O)N(CC(=O)NCC(F)(F)F)C3=O)ccc2c1 (centres undefined) | inactive |
| CCn1c(=O)cc(SCC(=O)N2CCC3(CC2)OCCO3)c2ccccc21 | inconclusive: 3.29 µM [inhibitor, single point] |
| CC(=O)Nc1ccc(S(=O)(=O)NCC2(N3CCOCC3)CCCCC2)cc1 | inactive |
| CN(CC(=O)N1CCN(c2ncccn2)CC1)S(=O)(=O)c1ccc(Cl)cc1 | inactive |
| COc1ccc(-c2cccc(C3CC=CC4C3C(=O)N(Cc3ccccc3)C4c3ccc4ccccc4c3)c2)cc1 (centres undefined) | active: 14.7 µM |
| NC(=O)c1ccsc1NC(=O)COC(=O)c1ccc(Cl)c(N)c1 | inconclusive: 1.47 µM [inhibitor, partial curve, poor fit] |
| CCOC(=O)c1c(C)[nH]c(C)c1C(=O)Cn1nnc(-c2ccccc2C)n1 | inactive |
| CC(C)[C@H](Nc1ccc(S(=O)(=O)N2CCOCC2)cc1[N+](=O)[O-])C(=O)OCC(=O)N(C(C)C)C(C)C | active: 5.22 µM |

| Structure (SMILES) | Potency |
| --- | --- |
| CCCCn1c(=O)n(CC(=O)NCc2ccc(C)cc2)c(=O)c2c1nc(CO)n2CCC | active: 4.15 µM |
| CCn1c(=O)c2sccc2n(Cc2cccc(C)c2)c1=O | inconclusive: 10.4 µM [inhibitor, partial curve, poor fit] |
| N=C1C2=C3Sc4ccccc4N3CCCC2=NN1c1cccc(S(=O)(=O)O)c1 | inactive |
| Cn1c(SCC(=O)NCc2ccc3c(c2)OCO3)nnc1-c1c[nH]c2ccccc12 | inactive |
| CC(C)(Oc1ccc(Cl)cc1)C(=O)N/N=C/c1cn[nH]c1-c1ccccc1 | inconclusive: 18.5 µM [inhibitor, single point] |
| N/C(=N\OC(=O)CC(c1ccccc1)c1ccccc1)c1cccnc1 | inactive |
| COc1cc(-n2nnnc2SC)c(OC)cc1Cl | inactive |
| COc1cccc(NC(=O)c2nn(-c3ccc(OC)cc3OC)c(=O)c3ccccc23)c1 | inconclusive: 4.65 µM [inhibitor, full curve, poor fit] |
| CCOC(=O)C(C)N1N=C(/C=C/c2ccc(C)cc2)CCC1=O (centres undefined) | inconclusive: 0.147 µM [inhibitor, full curve, poor fit] |
| COc1ccc2nc(C)cc(SCC(NC(C)=O)C(=O)OC(C)C)c2c1 (centres undefined) | inconclusive: 5.22 µM [inhibitor, partial curve, poor fit] |
| Cc1cn([C@H]2C=C[C@@H](CO)O2)c(=O)[nH]c1=O | inactive and inconclusive: 12 µM [inhibitor, partial curve] and inconclusive: 4.65 µM [inhibitor, single point] |
| Cc1ccc(N(C)S(=O)(=O)c2cccc(C(=O)NC3CC(C)(C)NC(C)(C)C3)c2)cc1 | inconclusive: 8.28 µM [inhibitor, single point] |
| CC(C)CN1C(=O)c2ccc(C(=O)Nc3ccc(OCC(=O)O)cc3)cc2C1=O | inactive |
| CCOC(=O)c1cc2c(ccn2C)n1CC(=O)N1CCN(c2ccc(F)cc2)CC1 | inconclusive: 18.5 µM [inhibitor, single point] |
| COc1cc(/C=C(\C#N)C(=O)NCC2CCCO2)ccc1OCCC(C)C (centres undefined) | inactive |
| CCCn1c(CNC(=O)c2ccccc2)nc2ccccc21 | active: 2.94 µM |
| Cc1cc(Br)c(NC(=O)CN2CC=C(c3ccccc3)CC2)c(Br)c1 | inconclusive: 18.5 µM [inhibitor, single point] |
| COc1ccc(OC)c(Nc2nc(NCc3ccco3)nc(N)c2[N+](=O)[O-])c1 | inconclusive: 1.47 µM [inhibitor, full curve] |
| C=CCC1(O)C(=O)N2C(=C1C(=O)OCC)c1ccc3ccccc3c1CC2(C)C (centres undefined) | inconclusive: 11.7 µM [inhibitor, single point] |
| Cc1cccc(NC(=O)CCNS(=O)(=O)c2cccc3nsnc23)c1 | inconclusive: 0.0329 µM [inhibitor, full curve, poor fit] |
| O=C(NC(=S)NCc1ccccc1)c1cccc(Cl)c1 | inactive |
| COc1cc(/C=C2/CC/C(=C/c3ccc(O)c(OC)c3)C2=O)ccc1O | inconclusive: 3.29 µM [inhibitor, full curve] |
